PubChem BioAssay AID1259254, NCATS – 2017
Screen: 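Finding genes that stop cells copying their DNA twice in one cycle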 (primary screen). Cells: human HCT116 colorectal cancer cells. Reagents: single siRNA against human genes. Time to read-out: 3 days. Measurement: 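Imaged Hoechst DNA stain sorts each cell into a cycle phase by DNA amount; per plate, G2 fraction set to 0% for non-targeting and 100% for GMNN siRNA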. Reading the numbers: G2 robust z-score and G2 cells, % of GMNN control: higher = more G2 cells, more excess DNA replication; raw share of cells in G2: higher = larger share of cells with G2 DNA content. Call rule: 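Active siRNAs have a G2 robust z of 5 or more median absolute deviations over the median, which in these data means about 38% or higher of GMNN control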.
In all, the deposit lists about 59,000 reagents; below is a part drawn at random. About 1,550 of them (2.6%) count as active. 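G2 share is only a proxy for re-replication; each gene was hit by three separate siRNAs, and active genes were retested.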 The raw values are shown without normalisation. Unmarked entries are inactive. No sequences are given here. The record does not give: the amount of reagent.

| target | PubChem SID | G2 robust z-score | G2 cells, % of GMNN control | raw share of cells in G2 (%) |
| --- | --- | --- | --- | --- |
| RPS26P8 | SID160769140 | 0.514 | 6.59 | 6.14 |
| RPS26P8 | SID160769141 | 3.76 | 29.4 | 13.8 |
| RPS26P8 | SID160769142 | -0.403 | 0.132 | 3.18 |
| LIMK1 | SID160776624 | -1.13 | -5 | 3.96 |
| LIMK1 | SID160776625 | -0.849 | -3.01 | 4.4 |
| LIMK1 | SID160776627 | -0.456 | -0.243 | 3.94 |
| GCHFR | SID160730933 | 0.461 | 6.21 | 7.62 |
| GCHFR | SID160730934 | 3.38 | 26.7 | 13.2 |
| GCHFR | SID160769956 | -0.62 | -1.39 | 4.73 |
| UBE2O | SID160747226 | -0.617 | -1.37 | 3.73 |
| UBE2O | SID160747228 | -0.533 | -0.785 | 4.07 |
| UBE2O | SID160747229 | 3.08 | 24.6 | 15.9 |
| CKLF | SID160724411 | -0.325 | 0.682 | 4.11 |
| CKLF | SID160727916 | 0.199 | 4.37 | 6.2 |
| CKLF | SID160733490 | 0.127 | 3.86 | 4.47 |
| TLE5 | SID160715329 | -0.764 | -2.41 | 2.5 |
| TLE5 | SID160715340 | -0.418 | 0.0285 | 4.86 |
| TLE5 | SID160715348 | -0.742 | -2.25 | 2.29 |
| GFUS | SID160718413 | -0.0771 | 2.42 | 6.62 |
| GFUS | SID160718414 | -0.466 | -0.311 | 4.37 |
| GFUS | SID160718415 | -0.965 | -3.82 | 2.84 |
| GPRIN1 | SID160754975 | 3.86 | 30.2 | 16.2 |
| GPRIN1 | SID160754976 | 1.23 | 11.6 | 6.79 |
| GPRIN1 | SID160754977 | -0.903 | -3.39 | 0.828 |
| DTNB | SID160756937 | -0.878 | -3.21 | 4.07 |
| DTNB | SID160756948 | -0.116 | 2.15 | 6.08 |
| DTNB | SID160756958 | -0.809 | -2.72 | 2.69 |
| SHCBP1L | SID160750923 | -0.559 | -0.968 | 3.79 |
| SHCBP1L | SID160750924 | -0.177 | 1.72 | 3.97 |
| SHCBP1L | SID160750925 | -0.0414 | 2.68 | 3.22 |
| ABRACL | SID160746919 | 3.03 | 24.3 | 13.9 |
| ABRACL | SID160746920 | -0.388 | 0.239 | 4.57 |
| ABRACL | SID160746921 | -0.14 | 1.98 | 3.66 |
| UBTFL5 | SID160771613 | -0.152 | 1.9 | 4.26 |
| UBTFL5 | SID160771614 | 0.244 | 4.69 | 4.52 |
| UBTFL5 | SID160771615 | -0.919 | -3.5 | 2.28 |
| GIPC3 | SID160724782 | -0.132 | 2.04 | 6.62 |
| GIPC3 | SID160724783 | 2.07 | 17.6 | 12.5 |
| GIPC3 | SID160756461 | -0.991 | -4.01 | 2.97 |
| ZNF664 | SID160730640 | 2.67 | 21.8 | 10.7 |
| ZNF664 | SID160758132 | -0.152 | 1.9 | 3.75 |
| ZNF664 | SID160758133 | 0.14 | 3.95 | 4.91 |
| LOC644667 | SID160733747 | -0.735 | -2.21 | 2.37 |
| LOC644667 | SID160768439 | 0.00895 | 3.03 | 4.79 |
| LOC644667 | SID160768440 | -0.396 | 0.183 | 3.49 |
| LAS1L | SID160751053 | 0.65 | 7.54 | 6.62 |
| LAS1L | SID160751054 | -0.155 | 1.88 | 4.01 |
| LAS1L | SID160751055 | 0.307 | 5.13 | 3.96 |
| CCDC127 | SID160757291 | -0.434 | -0.0865 | 4.14 |
| CCDC127 | SID160757292 | 2.37 | 19.7 | 9.34 |
| CCDC127 | SID160757294 | 0.783 | 8.48 | 5.65 |
| ARFIP1 | SID160738569 | 0.203 | 4.4 | 5.53 |
| ARFIP1 | SID160738570 | 3.65 | 28.7 | 15.4 |
| ARFIP1 | SID160738571 | -0.674 | -1.77 | 2.69 |
| TBC1D19 | SID160743470 | 1.74 | 15.2 | 10.4 |
| TBC1D19 | SID160743472 | 0.315 | 5.19 | 6.29 |
| TBC1D19 | SID160743473 | 1.31 | 12.2 | 7.03 |
| SERPINH1 | SID160737363 | -0.0771 | 2.42 | 5.54 |
| SERPINH1 | SID160737374 | 2.21 | 18.5 | 11.7 |
| SERPINH1 | SID160737385 | -0.528 | -0.747 | 3.71 |
| TRMO | SID160740952 | 3.84 | 30 | 14.3 |
| TRMO | SID160740954 | 0.461 | 6.21 | 6.89 |
| TRMO | SID160740955 | -0.373 | 0.344 | 3.31 |
| TMEM35A | SID160747032 | 0.105 | 3.7 | 6.19 |
| TMEM35A | SID160747033 | 2.32 | 19.3 | 13.3 |
| TMEM35A | SID160747034 | -0.937 | -3.63 | 1.74 |
| CCDC85B | SID160724302 | -1.69 | -8.89 | 1.5 |
| CCDC85B | SID160724303 | -0.032 | 2.74 | 5.27 |
| CCDC85B | SID160724304 | -0.298 | 0.874 | 3.5 |
| CPLANE1 | SID160734142 | 1.42 | 13 | 6.12 |
| CPLANE1 | SID160748303 | 0.154 | 4.05 | 6.34 |
| CPLANE1 | SID160748304 | -0.668 | -1.73 | 3.83 |
| PTPN7 | SID160715366 | 0.845 | 8.91 | 7.69 |
| PTPN7 | SID160715367 | 1.28 | 12 | 7.91 |
| PTPN7 | SID160715369 | -1.34 | -6.43 | 1.56 |
| YWHAH | SID160718938 | -0.129 | 2.06 | 6.47 |
| YWHAH | SID160718939 | 1.71 | 15 | 9.42 |
| YWHAH | SID160718940 | -0.0751 | 2.44 | 5.17 |
| COA5 | SID160733465 | -0.684 | -1.84 | 2.49 |
| COA5 | SID160768241 | -0.232 | 1.34 | 4.14 |
| COA5 | SID160768242 | -0.532 | -0.778 | 3.12 |
| VHL | SID160718751 | -0.315 | 0.749 | 5.91 |
| VHL | SID160718753 | 3.79 | 29.6 | 14.2 |
| VHL | SID160718754 | 0.752 | 8.26 | 7.34 |
| POC1B | SID160762733 | 0.429 | 5.98 | 5.82 |
| POC1B | SID160762734 | 2.42 | 20 | 10.8 |
| POC1B | SID160762735 | 0.305 | 5.11 | 4.82 |

5 entries from above, arranged by “raw share of cells in G2 (%)”, highest first:
| target | PubChem SID | G2 robust z-score | G2 cells, % of GMNN control | raw share of cells in G2 (%) |
| --- | --- | --- | --- | --- |
| LAS1L | SID160751053 | 0.65 | 7.54 | 6.62 |
| LOC644667 | SID160768439 | 0.00895 | 3.03 | 4.79 |
| LAS1L | SID160751054 | -0.155 | 1.88 | 4.01 |
| LAS1L | SID160751055 | 0.307 | 5.13 | 3.96 |
| LOC644667 | SID160768440 | -0.396 | 0.183 | 3.49 |
